Test results taken from patent US12366579B2, “Sulfur-heterocycle exchange chemistry and uses thereof” (University of Virginia Patent Foundation, priority 2019, dated 2025).
Some entries share one result that the patent states for a list of compounds.

How the values were obtained:
[1] = HPLC assay, n-butylamine reactivity against a sulfonyl probe mixture; format: physicochemical; conditions: TMG 3.3 equivalents
Procedure: The following reagents were prepared and kept at 0° C. prior to use: 0.1 M solution of caffeine in acetonitrile (ACN), 1.0 M solution of n-butylamine, p-cresol, tetramethylguanidine (TMG), acetic acid in ACN, and 10 mM solution of the probes in a mixture of DMF-ACN (v/v=10:90) are made.
(ii) n-Butylamine reactivity against a probe mixture: Reactivity of sulfonyl probes against n-butylamine (3.3 eq) was performed as described above except the amount of TMG was fixed at 3.3 eq.

[2] = system: HEK293T soluble proteomes; assay: LC-MS chemical proteomics of probe-modified sites in cell proteomes; format: binding, human; conditions: FIG. 4C
Procedure: Proteomes were diluted to 2.3 mg/mL in PBS and sample aliquots (432 μL) were treated with sulfonyl-triazole or -fluoride probes at the indicated concentrations (5 μL, 100× stock in DMSO), mixed gently and incubated for 1 h at room temperature. Probe-modified proteomes were subjected to CuAAC conjugation to desthiobiotin-PEG3-azide (10 μL of 10 mM stock in DMSO; final concentration of 200 μM) using TCEP (10 μL of fresh 50 mM stock in water; 1 mM final concentration), TBTA ligand (33 μL of a 1.7 mM 4:1 t-butanol/DMSO stock, 100 μM final concentration), and CuSO4 (10 μL of 50 mM stock, 1 mM final concentration). Samples were mixed by vortexing and then incubated for 1 h at room temperature. Excess reagents were removed by chloroform-methanol extraction as previously described^51. […]
Sulfonyl-probe modifications of tyrosine, lysine, and other amino acids were included as a variable (common) modification of +635.27374 Da. […] Distinct peptides containing probe-modified amino acid residues (termed sites) were determined by identifying all unique razor protein and site combinations across all of the proteomes tested. […]
Proteomes were digested with trypsin protease and desthiobiotin-modified peptides enriched by avidin affinity chromatography, released, and analyzed by high-resolution liquid chromatography-mass spectrometry (LC-MS). […]

With `C#CCNC(=O)c1ccc(S(=O)(=O)F)cc1` [HHS-SF-1, 4-(Prop-2-yn-1-ylcarbamoyl)benzenesulfonyl fluoride, reference compound] the “time to complete reaction with n-butylamine” value [1] was over 24 h and the “overlap of modified tyrosine sites, HHS-SF-1 vs HHS-482” value [2] was over 90%.
